The series is described as follows: Chemoselectivity of (R)-NODAGA-S-Tz-Cl for thiols versus amines: conversion rate of model peptides (LC-MS at 214 nm). As to conditions: peptide 20 μM, phosphate buffer 0.01 M, 2.5 equiv. (R)-NODAGA-S-Tz-Cl, 25° C.

For the substance “Ac-CKYWGRGDS-NH2 [model peptide containing a cysteine (thiol)]”, the “Conversion rate of the peptide” value was 96% (pH 5.97, 3.5 min); 97% (pH 5.97, 30 min); 96% (pH 6.29, 3.5 min); “quant” (pH 6.29, 30 min); “quant” (pH 7.13, 3.5 min); “quant” (pH 7.13, 30 min).
On to Ac-MKYWGRGDS-NH2, for which the “Conversion rate of the peptide” value was less than 1% (pH 6.29, 3.5 min); less than 1% (pH 6.29, 30 min); less than 1% (pH 7.13, 3.5 min); less than 1% (pH 7.13, 30 min).

For the origin of these results see US11242359B2, “Biocompatible modular tetrazine platform” (Centre national de la recherche scientifique, priority 2017, dated 2022).
